# Reference: patent US20240076387A1
# B1: 21B3 (antibody, V domains shown)
# VH: ELQLVESGGGLVQPGGSLRLSCAASGFTFRDYSMSWVRQAPGKGLEWVSAISWNGDSTYYAESMKGRFTISRDNAKNTLYLQMNSLKSEDTAVYYCAKSWATPIESLYYYGMDYWGKGTLVTVSS
# VL: SYELTQSPSVSVALRQTAKITCGGNNIGSQTAQWYQQKPGQAPVLVIYANNRRPSGIPERFSGSKSGNTATLTISGAQAEDEADYYCQVWDGSTQAIVFGGGTHLTVL
# Molecular target: deglycosylated human sFlt-1 (human)
# Assay: size exclusion chromatography of the mixture
binder,measurement,value
B1,binding,binds

# Results are given in words; binding and its absence hold for the method and conditions named. Binding calls can cover weak binding; strength is not graded here.
